Results are given in words; binding and its absence hold for the method and conditions named. In cells and extracts the contact can be indirect. Binding can be weak; no strength is given. Values belong to the molecule of their own block, whether it stands above or below them.
How the values were obtained:
Assay in all cases: co-IP; cow ovarian cortical tissue lysate in 1% Triton X-100 in PBS; 1 µg monoclonal antibody (anti-CD9, anti-CD63 or anti-αVβ3) 4 h at RT, Protein G Agarose overnight at 4 °C, 5 washes in PBS; eluted in non-reducing sample buffer; blotted with anti-αV (CD9 and CD63 precipitates) or anti-CD63 (αVβ3 precipitate)
[1] = biological target: T1, tetraspanin CD63 (bovine (endogenous in cow ovarian tissue)) (UniProt Q9XSK2)
T1 sequence: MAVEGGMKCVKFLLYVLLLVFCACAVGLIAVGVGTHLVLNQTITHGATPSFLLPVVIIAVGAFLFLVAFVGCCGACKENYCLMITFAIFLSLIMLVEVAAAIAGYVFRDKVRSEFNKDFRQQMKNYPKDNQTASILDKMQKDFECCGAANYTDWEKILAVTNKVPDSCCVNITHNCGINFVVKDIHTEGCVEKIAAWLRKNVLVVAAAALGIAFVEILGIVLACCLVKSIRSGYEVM

[2] = biological target: T2, tetraspanin CD9 (bovine (endogenous in cow ovarian tissue)) (UniProt P30932)
T2 sequence: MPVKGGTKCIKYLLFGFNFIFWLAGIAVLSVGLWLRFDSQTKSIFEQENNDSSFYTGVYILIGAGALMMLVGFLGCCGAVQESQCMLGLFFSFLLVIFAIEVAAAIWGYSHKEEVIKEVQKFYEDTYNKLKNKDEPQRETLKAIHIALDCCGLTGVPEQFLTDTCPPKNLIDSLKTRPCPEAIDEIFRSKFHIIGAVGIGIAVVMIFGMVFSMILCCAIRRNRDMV

[3] = biological target: integrin αVβ3 (bovine (endogenous in cow ovarian tissue))

- binding [1]: binds
- binding [2]: binds
Molecule: integrin alpha V

- binding [3]: binds
B1: tetraspanin CD63 (protein, UniProt Q9XSK2 1-237)
chain: T1 sequence

— PMC9922244
